Reference: article PMC10163288
The list shows a part of the results.

B1: il2ra_site2_3nfp_normal_mot_HHH_b1_02826_000000151_0001_21_38_H_._c92f2f267e3140931cbaf1d223b4767f_0001_1_af2_0001_0000300015_0000001_0_af2pred_0001_af2pred (protein)
chain: TLAEEVLELLEEGDEEEAEKAVERLVKAARRLGAPPEDAEFWVKLLLERAGIPPELVEKLLEALR
B2: il2ra_site1_3nfp_normal_mot_0eddeacbb14b769e73e254714f31e2f9_0001_af2_000000052_0001_37_51_H_._HHH_b2_04962_0001_0000400014_0000001_0 (protein)
chain: SSSSDTEEYAEEVAERLRELIQEGDFEEARRLAQEASKFVKERRNTEAADILYEVLREIISSSSS
B3: il2ra_site1_1z92_normal_mot_HHH_b1_04602_000000153_0001_1_19_H_._HHH_b2_03060_af2_0001_0000100018_0000001_0 (protein)
chain: SSSDRKEEAFVRVVVKALVEMANLSEEQEEKLEELARELLERGVDELEILKELDRLAAELESSSS
B4: il2ra_site2_2erj_sap_19_mot_HHH_b2_01204_af2_000000051_0001_19_34_H_._HHH_b1_06791_0001_0000100006_0000001_0_0001 (protein)
chain: DEVEELEKLLREAATLAWRRNDFELYNLLSEAFRRLAQVLVENDEEEKEKANKFAKEVIEEAESS
B5: il2ra_site1_1z92_sap_11_mot_HHH_b1_04488_000000139_0001_42_58_H_._HHH_b2_08307_af2_0001_0000200009_0000001_0_0001_af2pred_0001_af2pred_1_swapped (protein)
chain: DEAHRLDLEQARKQGLPPEKAVRAVIRAIAQIERVPPEEAAEILLEVLEKLGDPELAEIAEELTP
B6: il2ra_site1_1z92_normal_mot_HHH_b1_01565_af2_000000147_0001_1_17_H_._HHH_b2_00438_0001_0000200025_0000001_0 (protein)
chain: SSSSSSEVEVAAKAVAQAAGLSEEQEEELRELARELLEEGYSELEILKILDRRALELNESSSSSS
B7: il2ra_site1_2b5i_normal_mot_HHH_b2_04910_000000118_0001_1_19_H_._HHH_b1_07536_0001_0000100003_0000001_0 (protein)
chain: SSSSSSSEEARELFEEADELDRRGDPEEAERVLREAEEIAREAGSRALLRVIEAALKQAESSSSS
B8: il2ra_site2_2erj_sap_27_mot_HHH_b1_08185_000000106_0001_41_55_H_._HHH_b1_07526_af2_0001_0000800010_0000001_0_0001 (protein)
chain: SSSSDWLEEAYELANEAMRLIEERDDEELEKVLELLEEIAEKANNPSIEEIVESLRRSFKSSSSS
B9: il2ra_site1_1z92_sap_14_mot_HHH_b1_07537_af2_000000083_0001_43_56_H_._08167eb7329a42484cd5255d2447d7e3_0001_0001_0000200038_0000001_0_0001_af2pred_0001_af2pred (protein)
chain: DEEVEKAIEAAEEAGFSPENIVKALLAALARHLKVPPEEALQFLLEVLRRLGDPELVEIVEELLR
B10: il2ra_site2_3nfp_normal_mot_HHH_b1_03516_af2_000000045_0001_38_52_H_._HHH_b1_06009_0001_0000200017_0000001_0 (protein)
chain: SSSSHREDLIRALLILAKRLVEELEDPELQRELERLIEELEREGDPHIAIRLAELLNKINSSSSS
B11: il2ra_site2_2erj_sap_16_mot_HHH_b1_03572_af2_000000164_0001_41_56_H_._HHH_b1_07106_0001_0000700021_0000001_0_0001_af2pred_0001_af2pred (protein)
chain: SSSSDVEEEIEELIEEAKRLLEEGDPERAEEVLLEASRLAFEARDEELYEELLRLLEELESSSSS
B12: il2ra_site2_2erj_sap_23_mot_HHH_b1_00821_000000191_0001_1_20_H_._HHH_b2_02170_0001_0000700016_0000001_0_0001 (protein)
chain: SSSSSDVEEEVRELLERAEEAYEEGDLHLVYELAVRALHLAARHNDREALRLIREVFERLSSSSS
B13: il2ra_site2_3nfp_sap_27_mot_HHH_b1_05437_000000005_0001_40_57_H_._HHH_b1_07835_af2_0001_0000100004_0000001_0_0001 (protein)
chain: SSSSDHAEEYLRAALELAKEALELGDPEAARRIVEMALVAAESNNDEELLEEIRELLEELSSSSS
B14: il2ra_site1_3nfp_normal_mot_HHH_b2_02053_000000240_0001_1_20_H_._97e99672e168623ff83a69b38e8865de_0001_1_0001_0000300024_0000001_0_af2pred_0001_af2pred (protein)
chain: DAEEAVERLVEIAVRNNNPKVLRKILRTLEAFFGDPEEAEEFLHELIEKVLGDPEEAERLVREAK
B15: il2ra_site2_3nfp_normal_mot_HHH_b2_05281_000000198_0001_39_56_H_._HHH_b2_05191_0001_0000100006_0000001_0 (protein)
chain: SSSSDYEERVRELLEEVEELIKEGDEERARELLAEATHIAYENRDHELFALVAELAFKIVQSSSS
B16: il2ra_site1_2b5i_sap_11_mot_HHH_b1_06258_af2_000000112_0001_42_56_H_._HHH_b2_06437_af2_0001_0000300015_0000001_0_0001_af2pred_dldesign_0_af2pred (protein)
chain: SSSSSEEVEKVYDLFKKALELWRAGKKEEARELLEEALALAEALGLTNYVADLKRFLSLLSSSSS
B17: il2ra_site1_1z92_normal_mot_b1fbee8209167eaadba3689d49187f1a_0001_1_af2_000000019_0001_16_31_H_._5511cb2176c827d1feb3066af2f534d5_0001_0001_0000100006_0000001_0 … (protein)
chain: PEELAEEAKELLRNGNPEEAEKVLRELARELGNEEAFKKDLELAEKFLGDPRLALKALISVLSRF
B18: il2ra_site2_2erj_normal_mot_HHH_b2_01353_af2_000000049_0001_23_39_H_._HHH_b1_00034_af2_0001_0001300051_0000001_0 (protein)
chain: SSSSDEEERIKELLKEAEELLENGNPEEAEEVLREAAELAFELGNFELFSEVLEILHELNSSSSS
B19: il2ra_site1_3nfp_normal_mot_HHH_b2_02053_000000240_0001_1_20_H_._7c16d87a9f88b4a3e37f3bc2238c8c9d_0001_1_af2_0001_0000100004_0000001_0_af2pred_0001_af2pred (protein)
chain: SILTELLRLAAEQNNPESLRRIVEQLVRTLGDPEEARKLLEELLEEYGDPVIEEAIEILEELIEK
B20: il2ra_site2_2erj_normal_mot_HHH_b1_03107_000000098_0001_39_52_H_._HHH_b2_01166_0001_0000100004_0000001_0 (protein)
chain: SSSSTEVWEEVARLLAEALELFKEGDEEEVEKLLQEAKRLAEENNDEALERYVEFARRDASSSSS
B21: il2ra_site1_3nfp_normal_mot_7a4252a17c26caee427851ffd8bc664f_0001_000000112_0001_1_12_H_._HHH_b2_06852_af2_0001_0000100002_0000001_0 (protein)
chain: SSSSSEEEERLLELAQELTRAFWEGDKEEARKLAEEALELAEELNDERARKQLERFLKELSSSSS
B22: il2ra_site1_2b5i_normal_mot_HHH_b2_04910_000000118_0001_1_19_H_._HHH_b1_06846_af2_0001_0000300021_0000001_0_af2pred_dldesign_0_af2pred (protein)
chain: SSSSSSPTAEAIALFKKADELYKAGKYEEAKKLLEEARELAEKNGNKSLAKAIKLALESISSSSS
B23: il2ra_site1_2b5i_sap_20_mot_HHH_b2_01776_af2_000000178_0001_1_14_H_._HHH_b2_00329_0001_0000100002_0000001_0_0001_af2pred_0001_af2pred_1 (protein)
chain: SSSSTEELRELVHFIFELLHKFGLSSEQARELNQLAAELADKGVSVEEIKELLRELAEELSSSSS
B24: il2ra_site2_2erj_normal_mot_HHH_b1_04373_af2_000000118_0001_18_33_H_._HHH_b1_05737_0001_0000200011_0000001_0 (protein)
chain: SSSSDLEEVYELAVRALRLLAEGNPEEAEKVLKEAEEILEKAGNEDAVRFLEELFELFERSSSSS

Biological target: il2ra, P01589
Assay: yeast display titration

Apparent Kd, inactive:
B1 no binding seen
B2 no binding seen
B3 no binding seen
B4 no binding seen
B5 no binding seen
B6 no binding seen
B7 no binding seen
B8 no binding seen
B9 no binding seen
B10 no binding seen
B11 no binding seen
B12 no binding seen
B13 no binding seen
B14 no binding seen
B15 no binding seen
B16 no binding seen
B17 no binding seen
B18 no binding seen
B19 no binding seen
B20 no binding seen
B21 no binding seen
B22 no binding seen
B23 no binding seen
B24 no binding seen

Not a retest: entries from further up.
Apparent Kd, inactive:
B1 no binding seen
B2 no binding seen
